Among all 320,000 compounds or so, about 620 (0.19%) were called active. The inconclusive results got no clear call from the source; some entries with a clear call stand among them for comparison. Cut-off read from the data, not from the text of the source: active = activation above about 80%; inconclusive = between about 30% and that limit; inactive = weaker than that.
target: Transient receptor potential cation channel subfamily V member 1 (Homo sapiens) (UniProt Q8NER1); assay: HTS Assay for Compounds that Act as Agonists of the Vanilloid Receptor 1; conditions: TRPV1-expressing cells, Fluo-8 calcium influx, agonist mode; at 8.33 µM, hits give high values; note: 0% is about no effect
Method in brief: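 Fluo-8 calcium influx in TRPV1-expressing cells, kinetic read (ex 480/em 520 nm). Compound added and read 3 min for agonist activity, followed by capsaicin at EC20 final and 2 min further read for enhancement.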

By UniProt entry, the sequences of proteins in these tests, tags left out.
UniProt Q8NER1, whole entry, looked up: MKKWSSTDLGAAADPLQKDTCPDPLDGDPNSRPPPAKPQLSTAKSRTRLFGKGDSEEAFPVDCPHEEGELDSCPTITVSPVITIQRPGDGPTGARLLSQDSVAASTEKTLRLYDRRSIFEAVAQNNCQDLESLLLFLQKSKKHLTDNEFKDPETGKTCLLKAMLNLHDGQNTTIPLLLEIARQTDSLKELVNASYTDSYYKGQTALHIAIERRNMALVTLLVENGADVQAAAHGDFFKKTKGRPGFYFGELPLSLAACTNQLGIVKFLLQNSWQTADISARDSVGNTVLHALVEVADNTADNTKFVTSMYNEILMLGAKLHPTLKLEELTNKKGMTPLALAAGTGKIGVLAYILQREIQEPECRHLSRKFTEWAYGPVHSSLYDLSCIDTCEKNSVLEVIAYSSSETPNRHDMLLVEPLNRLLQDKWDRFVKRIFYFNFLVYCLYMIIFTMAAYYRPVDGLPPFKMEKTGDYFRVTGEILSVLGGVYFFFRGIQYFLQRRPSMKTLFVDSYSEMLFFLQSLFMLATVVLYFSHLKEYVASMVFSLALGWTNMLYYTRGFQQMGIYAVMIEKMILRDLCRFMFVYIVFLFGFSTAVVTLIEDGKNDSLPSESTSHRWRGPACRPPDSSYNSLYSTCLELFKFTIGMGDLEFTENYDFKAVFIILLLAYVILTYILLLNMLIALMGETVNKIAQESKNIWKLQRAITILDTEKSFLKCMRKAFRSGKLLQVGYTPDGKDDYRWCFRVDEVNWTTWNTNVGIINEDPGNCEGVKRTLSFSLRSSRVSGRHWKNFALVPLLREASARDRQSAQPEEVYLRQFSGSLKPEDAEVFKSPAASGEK

SMILES	activation
COc1ccc(C(=O)O/N=C2\CCS(=O)(=O)c3sccc32)cc1	inconclusive: 51%
O=S(=O)(c1ccccc1)N1CCN(C(=S)Nc2ccc(Br)cc2)CC1	inconclusive: 65.9%
c1ccc(N2CCN(c3ccccc3)C2c2cccs2)cc1	inactive: 0.181%
CCN(Cc1ccc(OC)c(COC)c1)CC1CCCN(CCc2cccc(OC)c2)C1 (stereo not given)	inactive: 2.73%
CCCCn1c(NC(=O)C2CCCCC2)nc2ccccc21	inconclusive: 42.5%
O=C(Nc1ccccc1)N1CCC(O)(c2cccc(C(F)(F)F)c2)CC1	inconclusive: 68.3%
Cc1cc(=O)oc2cc(OCC(=O)Nc3cccc(S(=O)(=O)N(C)C)c3)ccc12	inactive: 3.09%
CC1CCN(c2ccccc2NC(=O)c2ccc(N3CCOCC3)c([N+](=O)[O-])c2)CC1	inconclusive: 58.5%
COc1ccccc1CNC(=O)c1oc2ccc(S(=O)(=O)N3CCCC3)cc2c1C	inactive: -4.19%
Cc1nc(Cl)sc1C(=O)Nc1ccc(Cl)cc1	inconclusive: 39%
O=C(NCC1CCCO1)c1ccccc1OCc1ccc(F)cc1 (stereo not given)	inconclusive: 47.8%
O=C(Nc1nc(-c2ccccc2)cs1)Nc1ccc(F)cc1F	inconclusive: 55.5%
O=C(c1ccc(Cl)cc1)N1CCCC(C(=O)N2CCc3ccccc3C2)C1 (stereo not given)	inconclusive: 55.7%
CCOC(=O)/C(=N/Nc1ccccc1)Sc1nnc(CCc2ccccc2)n1-c1ccccc1	inconclusive: 39.2%
CCOC(=O)[C@H]1[C@H]2COc3ccc(OC)cc3[C@@H]2N2C(=O)c3ccccc3NC(=O)[C@@]12C	active: 100%
O=C(Nc1ccc(SC(F)F)cc1)c1ccc2nccnc2c1	inconclusive: 69.9%
Cc1ccc(-c2cc(C(=O)NCCc3ccc(S(N)(=O)=O)cc3)c3ccccc3n2)cc1	inactive: 1.6%
O=C1Cc2ccccc2C(c2ccc(Cl)cc2)N1 (stereo not given)	inactive: 3.8%
O=C(Nc1cccc2ncccc12)c1ccc([N+](=O)[O-])o1	inactive: -0.511%
S=C(Nc1cc(Cl)cc(Cl)c1)NC1CCN(Cc2ccccc2)CC1	inactive: 2.96%
CCOC(=O)CN(C(=O)COc1nc(-c2ccccc2)cc(C)c1C#N)c1ccc(F)cc1	inconclusive: 34.2%
COc1ccccc1OC(C)C(=O)Nc1ccc(S(=O)(=O)N2CCN(C)CC2)cc1 (stereo not given)	inactive: 0.0482%
Cc1cccc(/C=C2\CCC(=C3SCCCS3)C2=O)c1	inactive: 13.6%

Copied from the list.
activation, O=S(=O)(c1ccccc1)N1CCN(C(=S)Nc2ccc(Br)cc2)CC1 is entered as inconclusive: 65.9%
activation, COc1ccccc1OC(C)C(=O)Nc1ccc(S(=O)(=O)N2CCN(C)CC2)cc1 (stereo not given) is entered as inactive: 0.0482%

Pulled by compound from the entries so far:
SMILES	activation
COc1ccccc1OC(C)C(=O)Nc1ccc(S(=O)(=O)N2CCN(C)CC2)cc1 (stereo not given)	inactive: 0.0482%
O=C(Nc1cccc2ncccc12)c1ccc([N+](=O)[O-])o1	inactive: -0.511%
O=C(Nc1nc(-c2ccccc2)cs1)Nc1ccc(F)cc1F	inconclusive: 55.5%

(further entries)

SMILES	activation
O=C(c1cc(-c2ccc(Cl)cc2)n[nH]1)N1CCc2ccccc2C1	inconclusive: 36%
CC(C)(C)NC(=O)C(c1ccc(Cl)cc1)N(CCO)C(=O)c1snc(C(N)=O)c1N (stereo not given)	inconclusive: 35.3%
O=C(NC1CCCCCCC1)NC1CCCCC1	inconclusive: 35.8%
Cc1ccc(Oc2ccc(C(=O)NCc3ccncc3)cc2)cc1	inconclusive: 70.1%
BrC(=C\c1ccccc1)/C=N/N1CCN(c2ccccn2)CC1	inactive: 4.42%
CCOC(=O)c1cnc2ccc(C)cc2c1Nc1ccc(N2CCOCC2)cc1	inconclusive: 33.1%
CCOC(=O)C1=C(N)n2c(s/c(=C/c3ccco3)c2=O)=C(C(=O)OC)C1c1ccco1 (stereo not given)	inconclusive: 46.6%
CCCCN1C(=O)C(=O)N(CC(=O)Nc2cc(S(=O)(=O)N(C)C)ccc2C)C1=O	inactive: 0.232%
Cc1cc(-c2nc3ccccc3o2)c2ccccc2n1	inactive: 10.7%
O=C(Nc1ccc(F)cc1)c1ccc(CSc2ccccc2)o1	inconclusive: 39.5%
CCOC(=O)Cn1c(=O)n(Cc2ccc(C)cc2)c(=O)c2cccnc21	inconclusive: 39.3%
CCOC(=O)C1(CCOc2ccccc2)CCN(Cc2cc(OC)c(O)cc2Cl)CC1	inconclusive: 70.7%
C=CCn1c(SC(C)C(=O)NCCC2=CCCCC2)nc2ccccc2c1=O (stereo not given)	inconclusive: 40.4%
CCOC(=O)[C@H]1[C@H]2COc3ccc(Cl)cc3[C@@H]2N2C(=O)c3cc(OC)ccc3NC(=O)[C@@]12C	inconclusive: 65.2%
Cn1c(=O)c(C(=O)NNC(=O)c2cccc(Cl)c2)c(O)c2ccccc21	inactive: 0.781%
CCC1CCCCN1C(=O)COC(=O)c1cc(C)nc2ccccc12 (stereo not given)	inactive: 22.3%
CCOCCCN(C(=O)c1snc(C(N)=O)c1N)C(C(=O)NC(C)(C)C)c1ccc(Cl)cc1 (stereo not given)	inconclusive: 58%
N#CCCn1ccc(NC(=O)c2ccc(Cl)cc2)n1	inconclusive: 38.3%
COc1ccc(Nc2ncnc3sccc23)cc1	inconclusive: 34.1%
Cc1ccc(SCCC(=O)Nc2ccccc2Br)cc1	inconclusive: 52.7%
CC1(C)Cc2cccc(OCC(=O)N3CCN(c4ccccc4F)CC3)c2O1	inconclusive: 42%
CC(=O)c1cccc(NC(=O)c2ccccc2OCc2ccc(F)cc2)c1	inconclusive: 31.6%
O=C(CCCc1ccccc1)c1ccccc1	inconclusive: 31.6%

SMILES	activation
CCCn1nc(NC(=O)C2CCCO2)c2cc3ccc(C)cc3nc21 (stereo not given)	inconclusive: 71.5%
O=C(NCc1cccc(Cl)c1)NCc1cccc(Cl)c1	inconclusive: 31.6%
S=c1nc(-c2sccc2OCc2ccc(Cl)cc2Cl)[nH][nH]1	inactive: -0.852%
CCNc1nc(CC)nc2c1oc1ccccc12	active: 87.8%
COc1ccc(C)cc1NC(=S)N1CCN(c2ccccn2)CC1	inactive: -0.869%
CCOc1ncccc1C(=O)OCc1cc(=O)oc2c(C)c(C)ccc12	inconclusive: 46.6%
Cc1ccc(C(=O)Nc2nc(-c3ccccc3)c(-c3ccccc3)o2)cc1	inconclusive: 67.6%
CCCCNC(=S)N1CCC(Cc2ccccc2)CC1	inconclusive: 44.8%
Cc1cc(OCc2cccc(S(=O)(=O)N3CCOCC3)c2)ccc1Cl	inconclusive: 35.6%
CCOC(=O)c1c(C)nc(C)c(C(=O)OCC)c1-c1ccc(OC)cc1	inconclusive: 56.4%
O=C(/C=C/c1ccc(Br)cc1)NC(=S)N1CCOCC1	inconclusive: 32.8%
COc1ccc(CN2CCN(C(=O)c3cccc4ccccc34)CC2)cc1OC	inactive: 5.94%
COc1ccc(CNC(=O)C(C)c2ccc([N+](=O)[O-])cc2)cc1 (stereo not given)	active: 80.4%
COC(=O)C(C)Oc1ccc(-c2nccc(-c3ccccn3)n2)cc1 (stereo not given)	inactive: 8.02%
COc1ccc(CN2C(=O)c3ccccc3C(/C=N\OCc3ccc(C)cc3)C2=O)cc1 (stereo not given)	inconclusive: 32.6%
Cc1ccc(C(=O)c2ccccc2C(=O)OCC(=O)N2CC(C)CC(C)C2)cc1 (stereo not given)	inconclusive: 30.9%
C/C(Cn1nnc([N+](=O)[O-])n1)=N\NC(=O)c1ccccc1O	inconclusive: 56.2%
Cc1ccc(NC(=O)C2CCN(S(=O)(=O)c3ccc(N4CCCC4=O)cc3)CC2)cc1Cl	inactive: -0.3%
O=C(CSc1nnnn1-c1cccc2c1CCCC2)N1CCCCC1	inconclusive: 61.9%
Cc1cccc(C(=O)OCC(=O)NC2CCCCCCC2)c1	inconclusive: 41.5%
CCCCCCn1c(=O)[nH]c2nc3cc(N)ccc3nc2c1=O	inconclusive: 58.5%
CCOc1ncccc1C(=O)NCc1ccc(OC)c(OC)c1	inactive: -1.62%
CN=Cc1c(NC)nc2c(C)cccn2c1=O	inactive: -0.246%

SMILES	activation
CC1(C)C2CC=C(/C=N/NC(=O)c3ccc(O)cc3)C1C2 (stereo not given)	inconclusive: 56.4%
c1ccc(-c2c3ccccc3nc3[nH]c4ccccc4c23)cc1	inactive: -1.33%
CCN(CC)S(=O)(=O)c1ccc(NC(=O)c2cnc(C)cn2)cc1	inconclusive: 66.4%
CN(c1ccccc1)c1ccc(/C=N/N2CCOCC2)cc1	inconclusive: 35.6%
Cc1ccc(C2C3=C(CCCC3=O)N=C3c4ccccc4C(=O)C32)cc1 (stereo not given)	inconclusive: 37.1%
Cc1ccc(-n2ncc(Cl)c2C(=O)NCc2ccccc2)cc1	inconclusive: 30.6%
CCOc1ccc(NC(=O)CN2CCN(CC(=O)Nc3cccc(F)c3)CC2)cc1	inactive: 2.92%
CCc1cc(OCCN(C)C)ccc1Cl	inactive: 0.292%
CC(C)(C)c1ccc(C(=O)Nc2ccc([N+](=O)[O-])cn2)cc1	inconclusive: 69.8%
COc1cccc(-c2ccnc3[nH]n(-c4ccccc4)c(=O)c23)c1	inconclusive: 32.4%
COC(=O)Cn1c(=NC(=O)C2COc3ccccc3O2)sc2cc(S(N)(=O)=O)ccc21 (stereo not given)	inconclusive: 32.8%
CC(C)CC(/C(O)=C(\C#N)c1nc2ccccc2[nH]1)N1C(=O)c2ccccc2C1=O (stereo not given)	inactive: 23.1%
Cc1nn(-c2ccccc2)c(N2CCCCC2)c1/C=N/NC(=O)c1ccncc1	inconclusive: 73.9%
Cc1ccc(NC(=S)NCCC2=CCCCC2)cc1	inconclusive: 62.1%
O=C(NCCS(=O)c1ccc(Cl)cc1)c1cccc(Cl)c1 (stereo not given)	inconclusive: 36.6%
CN1CCN(c2ccccc2NC(=O)c2ccc(-c3ccc(Cl)cc3Cl)o2)CC1	inactive: 20.5%
CC(C)(C)c1ccc(C(=O)NC(=S)Nn2cnnc2)cc1	inactive: 4.37%
COc1ccc(C(C)(C)C)cc1NC(=O)CCCn1c(=O)oc2ccccc21	inconclusive: 30%
O=C(Nc1ccc(N2CCOCC2)c(S(=O)(=O)Nc2ccccc2Cl)c1)c1ccccc1	inconclusive: 31.1%
CCCCCCSc1cc(-c2nc3ccc(Cl)cn3c2NCCCC)ccc1OC	inconclusive: 38.4%
CC(C)c1cc(C(=O)N/N=C/c2ccoc2)c(O)c(C(C)C)c1	inconclusive: 37.2%
